From PubChem BioAssay AID2685 (National Center for Advancing Translational Sciences (NCATS), 2010)
Some of the results follow. Shown are side measurements of this screen, not its main read-out; they come without a call. Most of these compounds were active or inconclusive in the main read-out, so they are no random draw. The note in brackets gives the kind of curve behind each potency; many fits are weak.

Test: qHTS Assay for Lipid Storage Modulators in Drosophila S3 Cells;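 for cell number change: cells counted by Cell Tracker Red CMTPX staining in the red channel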
Conditions: BODIPY lipid droplet fluorescence, 18-24 h; for cell number change: measured here: cell count max response, cells fed with added oleic acid
Procedure, shortened: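 Laser-scanning cytometry quantifies lipid droplet accumulation (500–530 nm total intensity; droplet/cell object ratio) in oleic acid-fed (400 uM added) Drosophila S3 cells treated with a concentration series. 20 uM Triacsin C defined 100% inhibition.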

[1] = measured here: lipid fluorescence (Fed channel) AC50, cells fed with added oleic acid
[2] = measured here: cell number channel AC50, cells fed with added oleic acid

SMILES	cell number change	AC50 [1]	AC50 [2]
CS(=O)(=O)c1ccc(C(=O)NCC2(N3CCCCC3)CCCCC2)cc1	7.07%	6.51 µM [falling, partial curve]	
N#Cc1cc([N+](=O)[O-])ccc1NCCCn1ccnc1	31.9%		
CN(C1CCCCC1)S(=O)(=O)c1ccc2c(c1)c(=O)c(C(=O)NCCCN1CCCC1)cn2C	31.5%		0.058 µM [rising, full curve, poor fit]
COc1cc(NC(=S)NCCCO)c(OC)cc1Cl	-39.8%		
CCc1c(C2(O)CCCCC2)[nH]c2c(C(=O)OC)cc(Cl)cc12	-16.5%		
Cc1ccc(-c2nn(CCC(=O)NN3CCOCC3)c(=O)c3ccccc23)cc1	-48.5%	4.61 µM [falling, single point]	4.11 µM [falling, single point]
CCc1sc(C(=O)NC(C)C2CCCO2)cc1Br (stereo not drawn)	1.42%	0.708 µM [falling, single point]	
COc1ccc(S(=O)(=O)Nc2ccc(Cc3ccncc3)cc2)cc1OC	11.8%	29.1 µM [falling, single point]	
Cc1nnc2ccc(N3CCN(C(=O)c4ccccc4)CC3)nn12	19.9%	1.46 µM [rising, partial curve, poor fit]	
N#C/C(=C(/O)c1ccc(Cl)cc1)c1nc2ccccc2[nH]1	31.2%	6.51 µM [rising, single point]	16.4 µM [rising, single point]
COCc1cc(C)nc(SCC(=O)Oc2ccccc2)c1C#N	-64.3%		
CCOc1ccccc1NC(=O)CNC(=O)CNC(=O)Cc1ccccc1	28.2%	2.91 µM [rising, full curve, poor fit]	
O=C(c1nc2ncccn2n1)N1CCc2ccccc2C1	11%	6.51 µM [rising, single point]	
CCN=c1scc(-c2ccco2)n1/N=C/c1ccc(O)cc1	4.84%	13 µM [rising, partial curve]	6.51 µM [rising, single point]
COc1ccc(-c2cc(C(=O)N3CCCCCC3)c3ccccc3n2)cc1	159%		23.1 µM [rising, partial curve]
Cc1ccc(C)c(Cn2cnc3c(cnn3C(C)(C)C)c2=O)c1	-34.1%	0.411 µM [falling, full curve]	11.6 µM [falling, partial curve]
CCOC(=O)c1cnc2ccc(OCC)cc2c1NCc1ccccc1	-17.8%	16.4 µM [falling, single point]	
CCCC1=Nc2cc(C(=O)N3CCC(C(=O)OCC)CC3)ccc2Sc2ccccc21	12.2%	6.51 µM [rising, single point]	
Cc1cccc(NC(=O)C2CCCN2S(=O)(=O)c2ccc3c(c2)n(C)c(=O)c(=O)n3C)c1 (stereo not drawn)	6.34%	29.1 µM [falling, single point]	
Cn1nnnc1SCC(=O)NC(=O)Cc1ccccc1	-24.7%	11.6 µM [falling, partial curve, poor fit]	
O=C(NC1CCCC1)C(c1cccnc1)N(Cc1ccc(F)cc1)C(=O)c1csnn1 (stereo not drawn)	-35.2%	6.51 µM [rising, single point]	11.6 µM [falling, partial curve, poor fit]

SMILES	cell number change	AC50 [1]	AC50 [2]
CCOC(=O)Cn1c(=O)n(Cc2ccco2)c(=O)c2ccc(C(=O)NC3CCCC3)cc21	-0.659%		
O=C(O)C1CCCCC1C(=O)NC1C2CC3CC(C2)CC1C3 (stereo not drawn)	6.08%		
C(=N\Nc1nn[nH]n1)/c1ccccc1	18.9%	29.1 µM [rising, single point]	
CCCOc1ccc(C(=O)CCC(=O)OCC(=O)N2CC(=O)Nc3ccccc32)cc1	-30%	29.1 µM [rising, single point]	
CCN(CC(=O)Nc1ccccc1C(F)(F)F)C(=O)c1oc2ccc(OC)cc2c1C	21.2%		
Cc1cc(C)cc(N(CC(=O)NC(C)C)C(=O)CCC(=O)Nc2ccccn2)c1	7.61%	11.6 µM [rising, partial curve]	
C/C(=N/NC(=O)c1cccc(Br)c1)C1CC2CCC1C2 (stereo not drawn)	18.8%		
Cc1cc(C)n(CC(O)COc2ccccc2C(=O)Nc2ccccc2)n1 (stereo not drawn)	-18%	5.8 µM [rising, single point]	
COc1cc(OC)c(NC(=O)c2cccc(F)c2)cc1Cl	10.1%	0.206 µM [rising, full curve]	
Cc1nnc(C)n1/N=C/c1ccccn1	-26.3%	1.03 µM [falling, full curve]	0.326 µM [falling, full curve, poor fit]
O=C(C1=C[C@H](c2ccccc2)C[C@H](OCCCCO)O1)N1CCN(Cc2ccccc2)CC1	-8.32%	0.82 µM [falling, full curve, poor fit]	
Cc1c(/C=C(\C#N)C(=O)NCc2ccccc2)cc(C#N)n1C	-1.59%	0.82 µM [rising, partial curve, poor fit]	0.731 µM [rising, full curve, poor fit]
CC(=O)c1cccc(NC(=O)c2c(F)c(F)c(F)c(F)c2F)c1	-25.1%	11.6 µM [falling, partial curve]	
Cc1ccc(C)c(NC(=O)CCn2nc(C)cc2C)c1	20.8%	0.146 µM [rising, full curve, poor fit]	
Cc1ccc(NC(=O)CSc2ccccc2NC(=O)c2ccccc2)cc1Cl		13 µM [falling, partial curve]	
CCOC(=O)C1(CCOc2ccccc2)CCN(Cc2ccc(O)c(OC)c2)CC1	-27%		
CCOC(=O)C1CCCN(C(=O)c2cccc(S(=O)(=O)N(C)c3ccc(C)cc3)c2)C1 (stereo not drawn)	0.367%	6.51 µM [falling, partial curve]	
CC(C)c1ccc2oc(-c3cc(N)ccc3O)nc2c1	6.59%		
O=[N+]([O-])c1ccccc1CNCCO	-0.99%	25.9 µM [falling, partial curve, poor fit]	0.00461 µM [falling, full curve, poor fit]
CCOC(=O)c1sc(NC(=O)/C=C/c2cnn(C)c2C)c(C(=O)OCC)c1C	-2.3%	0.0461 µM [rising, full curve, poor fit]	
COc1ccc(N2C(=O)C3CC=C(Cl)CC3C2=O)cc1 (stereo not drawn)	30.3%		14.6 µM [rising, partial curve, poor fit]

SMILES	cell number change	AC50 [1]	AC50 [2]
c1cncc(-c2nnc3sc(-c4ccco4)nn23)c1	6.23%		
Cc1ccc(C)c(N(CC(=O)NC2CCCCC2)C(=O)CCC(=O)Nc2ccccn2)c1	30.7%		2.31 µM [rising, partial curve, poor fit]
CC(C)(C)C1CCc2[nH]c3ccccc3c(=O)c2C1 (stereo not drawn)	-9.84%	20.6 µM [rising, single point]	
COc1cc(/C(C)=N/N2CCN(c3ccccc3OC)CC2)ccc1O	2.65%	6.51 µM [falling, single point]	
COc1ccc(S(=O)(=O)N2CCOCC2)cc1NC(=O)Cc1c(Cl)cccc1Cl	-20.1%		1.84 µM [falling, full curve, poor fit]
Cc1ccc2c(CC(=O)OC3CCOC3=O)coc2c1 (stereo not drawn)	-20.6%	3.66 µM [falling, full curve]	1.64 µM [falling, partial curve, poor fit]
CCCN(Cc1cc2ccc(C)cc2[nH]c1=O)C(=O)c1cccnc1	12.3%	0.0291 µM [rising, full curve, poor fit]	
COc1ccc(CCNC(=O)Cn2c(=O)oc3cc(Cl)ccc32)cc1OC	-0.337%		0.184 µM [falling, full curve, poor fit]
COCCN(CC(=O)Nc1cccc(C)c1C)C(=O)c1ccc2c(c1)OCO2	75%	0.092 µM [rising, full curve, poor fit]	6.51 µM [falling, single point]
CCOc1ccc(OCc2ccc(C(=O)N(C)c3ccccc3)o2)cc1	21.4%	29.1 µM [rising, single point]	
O=C(CSc1nnc(CCc2nc3ccccc3[nH]2)n1-c1ccccc1)NCc1ccco1	21%		
CCOC(=O)c1cnc2ncnn2c1N	-43.6%	29.1 µM [falling, single point]	29.1 µM [falling, single point]
COC(=O)[C@@]12CCCN1[C@H](c1ccc(-c3ccc(OC)cc3)c(OC)c1)[C@@H]1C(=O)N(C)C(=O)[C@@H]12	-30.4%		4.11 µM [falling, partial curve]
O=S(=O)(Nc1ncnc2sc3c(c12)CCC3)c1ccc(Cl)s1	-17.4%	29.1 µM [rising, single point]	
CCOC(=O)c1ccc(-c2c(-c3ccccc3OC)oc3ccccc23)cc1F	8.86%	0.103 µM [rising, full curve, poor fit]	
COc1cccc(Cl)c1NC(=O)N1CCN(c2ccnc3cc(Cl)ccc23)CC1			6.51 µM [rising, single point]
CC(N=c1ccccn1C(=O)Nc1cccc(C(F)(F)F)c1)c1ccco1 (stereo not drawn)	1.08%	29.1 µM [rising, single point]	
COC(=O)c1cc(-c2c(-c3cc(OC)c(OC)c(OC)c3)noc2C)cc([N+](=O)[O-])c1	16.8%		
O=C(O)c1cccc(S(=O)(=O)Nc2ccc(S(=O)(=O)N3CCOCC3)cc2)c1		0.82 µM [falling, partial curve, poor fit]	0.146 µM [falling, full curve, poor fit]
